PubChem BioAssay AID1224830 – NIAID, 2016

Purpose: 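Regulators of TLR4 signalling towards TNF-alpha in macrophage-like cells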 (primary screen)
System: human THP-1 monocytic leukaemia cells, TNF dual-luciferase reporter clone, PMA-differentiated to macrophage-like cells
Knock-down reagent: siRNA pool against human genes, 50 nM
Duration: LPS for 4 h, given about 3 days after siRNA transfection
Treatment: bacterial LPS (TLR4 ligand), 10 ng/ml
Read-out: 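Ratio of firefly to renilla light, scaled to the plate median and expressed as a robust z-score per replicate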
Reading the numbers: TNF reporter robust z-score: higher = stronger TNF reporter response to LPS
Hit rule: 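Each well counts as active if its z-score is over 2.8 or under -1.5; controls are left without a call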
This is a random part of about 18,000 reagents tested. Of all reagents, about 2,900 (16%) were called active. 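Calls are made per well; low scores hint the gene aids the LPS response, high scores that it dampens it.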 A number with no mark means an inactive call. Repeated entries: four replicate wells of each siRNA pool.

| gene | TNF reporter robust z-score |
| --- | --- |
| PNPLA4 | 0.07 |
| PNPLA4 | 2.84 (active) |
| PNPLA4 | 3.66 (active) |
| PNPLA4 | 3.65 (active) |
| EFNA1 (ephrin A1) | 0.36 |
| EFNA1 (ephrin A1) | 0.68 |
| EFNA1 (ephrin A1) | -0.4 |
| EFNA1 (ephrin A1) | 1.12 |
| SHOX (SHOX homeobox) | -0.34 |
| SHOX (SHOX homeobox) | 0.92 |
| SHOX (SHOX homeobox) | 1.37 |
| SHOX (SHOX homeobox) | 2.17 |
| PIDD1 (p53-induced death domain protein 1) | -0.53 |
| PIDD1 (p53-induced death domain protein 1) | -0.15 |
| PIDD1 (p53-induced death domain protein 1) | -1.18 |
| PIDD1 (p53-induced death domain protein 1) | -0.57 |
| EGR1 (early growth response 1) | -1.74 (active) |
| EGR1 (early growth response 1) | -1.54 (active) |
| EGR1 (early growth response 1) | -1.8 (active) |
| EGR1 (early growth response 1) | -1.72 (active) |
| SERPINB5 (serpin family B member 5) | -0.21 |
| SERPINB5 (serpin family B member 5) | 0.5 |
| SERPINB5 (serpin family B member 5) | -0.42 |
| SERPINB5 (serpin family B member 5) | -0.44 |
| RPS24 (ribosomal protein S24) | 0.3 |
| RPS24 (ribosomal protein S24) | 0.73 |
| RPS24 (ribosomal protein S24) | 0.66 |
| RPS24 (ribosomal protein S24) | 0.8 |
| ZNF441 (zinc finger protein 441) | -0.6 |
| ZNF441 (zinc finger protein 441) | -0.42 |
| ZNF441 (zinc finger protein 441) | -0.63 |
| ZNF441 (zinc finger protein 441) | 2.27 |
| MTMR9 (myotubularin related protein 9) | 1.18 |
| MTMR9 (myotubularin related protein 9) | 4.51 (active) |
| MTMR9 (myotubularin related protein 9) | 0.59 |
| MTMR9 (myotubularin related protein 9) | 2.34 |

Laid out differently: 5 of the entries above
gene,TNF reporter robust z-score
PIDD1 (p53-induced death domain protein 1),-0.15
PIDD1 (p53-induced death domain protein 1),-1.18
PIDD1 (p53-induced death domain protein 1),-0.57
EGR1 (early growth response 1),-1.74 (active)
EGR1 (early growth response 1),-1.54 (active)

Next reagents follow.
| gene | TNF reporter robust z-score |
| --- | --- |
| TREM1 (triggering receptor expressed on myeloid cells 1) | 0.54 |
| TREM1 (triggering receptor expressed on myeloid cells 1) | 0.39 |
| TREM1 (triggering receptor expressed on myeloid cells 1) | -0.95 |
| TREM1 (triggering receptor expressed on myeloid cells 1) | -0.57 |
| SETDB1 (SET domain bifurcated histone lysine methyltransferase 1) | -0.04 |
| SETDB1 (SET domain bifurcated histone lysine methyltransferase 1) | 0.78 |
| SETDB1 (SET domain bifurcated histone lysine methyltransferase 1) | 1.25 |
| SETDB1 (SET domain bifurcated histone lysine methyltransferase 1) | 0.68 |
| KRTAP12-1 (keratin associated protein 12-1) | 0.5 |
| KRTAP12-1 (keratin associated protein 12-1) | 0.54 |
| KRTAP12-1 (keratin associated protein 12-1) | 0.77 |
| KRTAP12-1 (keratin associated protein 12-1) | -0.25 |
| CSTF3 (cleavage stimulation factor subunit 3) | 0.35 |
| CSTF3 (cleavage stimulation factor subunit 3) | 0.7 |
| CSTF3 (cleavage stimulation factor subunit 3) | 0.88 |
| CSTF3 (cleavage stimulation factor subunit 3) | 2.2 |
| RUNX1T1 (RUNX1 partner transcriptional co-repressor 1) | -0.35 |
| RUNX1T1 (RUNX1 partner transcriptional co-repressor 1) | -0.02 |
| RUNX1T1 (RUNX1 partner transcriptional co-repressor 1) | -0.85 |
| RUNX1T1 (RUNX1 partner transcriptional co-repressor 1) | 0.28 |
| SLC35C1 | -0.47 |
| SLC35C1 | -0.27 |
| SLC35C1 | -0.29 |
| SLC35C1 | 0.43 |
| CFHR5 (complement factor H related 5) | 0.12 |
| CFHR5 (complement factor H related 5) | 0.96 |
| CFHR5 (complement factor H related 5) | 0.73 |
| CFHR5 (complement factor H related 5) | 0.68 |
| TBC1D4 (TBC1 domain family member 4) | -0.6 |
| TBC1D4 (TBC1 domain family member 4) | -0.71 |
| TBC1D4 (TBC1 domain family member 4) | -0.94 |
| TBC1D4 (TBC1 domain family member 4) | -0.86 |
| EHD1 (EH domain containing 1) | -0.52 |
| EHD1 (EH domain containing 1) | -0.28 |
| EHD1 (EH domain containing 1) | -0.79 |
| ACAD8 (acyl-CoA dehydrogenase family member 8) | -0.47 |
| ACAD8 (acyl-CoA dehydrogenase family member 8) | -1.24 |
| ACAD8 (acyl-CoA dehydrogenase family member 8) | -0.11 |
| ACAD8 (acyl-CoA dehydrogenase family member 8) | -0.42 |
